Reference: US20250269022A1, “ASSESSING AND TREATING CANCER” (Mayo Foundation for Medical Education and Research, priority 2021, published 2025)
For at least one compound, name, drawing or mass did not settle the structure.

Tested on: CART cells
Experiment: Proliferation assay of CART cells co-cultured with JeKo-1 cells, with navitoclax or venetoclax
Type: cell-based
Conditions: CART cells co-cultured with JeKo-1 in presence of drug
Description: Longitudinal navitoclax treatment of CART cells. […] Longitudinal treatments included two parts.
For proliferation assays, effector cells (CART cells), and irradiated target cells (CD19+ JeKo 1 cells) were co-cultured at different ratios and with different concentrations of the compounds. Cells were co-cultured for 3-5 days, and then cells were harvested and surface staining with antihCD3 (eBioscience, San Diego, CA, USA) and LIVE/DEAD™ Fixable Aqua Dead Cell Stain Kit (Invitrogen, Carlsbad, CA, USA) was performed.

## CC1(C)CCC(CN2CCN(c3ccc(C(=O)NS(=O)(=O)c4ccc(NCC5CCOCC5)c([N+](=O)[O-])c4)c(Oc4cnc5[nH]ccc5c4)c3)CC2)=C(c2ccc(Cl)cc2)C1 [venetoclax]
  CART cell proliferation against JeKo-1 in combination with senolytic: did not lead to decreased proliferation
